Laboratory results published in doi:10.1101/2020.11.12.377127.
No constants are given. Whether binding was seen depends on the method and setting. In cells and extracts the contact can be indirect. For part of these data: Binding calls can cover weak binding; strength is not graded here. For part of these data: Tags and fused reporters may be left off the sequences shown.

Key:
Test in all cases: co-IP
[1] = molecular target: T1, Halo-V5-tagged YTHDF2 fragment F5 (aa 368-579) (human) (UniProt Q9Y5A9)
T1 sequence: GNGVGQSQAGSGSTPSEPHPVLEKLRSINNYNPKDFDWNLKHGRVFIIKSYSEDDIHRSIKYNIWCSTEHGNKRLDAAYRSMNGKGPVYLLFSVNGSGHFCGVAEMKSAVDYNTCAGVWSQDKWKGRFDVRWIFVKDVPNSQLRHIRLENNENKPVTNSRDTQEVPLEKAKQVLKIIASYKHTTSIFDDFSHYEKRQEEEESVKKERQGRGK

[2] = molecular target: T2, Halo-V5-tagged YTHDF2 fragment F1 (aa 1-166) (human) (UniProt Q9Y5A9)
T2 sequence: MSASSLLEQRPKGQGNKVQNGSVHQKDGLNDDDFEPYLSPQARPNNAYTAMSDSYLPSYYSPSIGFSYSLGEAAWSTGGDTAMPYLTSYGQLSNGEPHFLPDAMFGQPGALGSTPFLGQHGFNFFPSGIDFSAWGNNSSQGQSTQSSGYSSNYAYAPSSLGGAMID

[3] = molecular target: Halo-V5-tagged WT YTHDF2 (human) (UniProt Q9Y5A9)
[4] = molecular target: T3, Halo-V5-tagged YTHDF2 fragment F4 (aa 167-579) (human) (UniProt Q9Y5A9)
T3 sequence: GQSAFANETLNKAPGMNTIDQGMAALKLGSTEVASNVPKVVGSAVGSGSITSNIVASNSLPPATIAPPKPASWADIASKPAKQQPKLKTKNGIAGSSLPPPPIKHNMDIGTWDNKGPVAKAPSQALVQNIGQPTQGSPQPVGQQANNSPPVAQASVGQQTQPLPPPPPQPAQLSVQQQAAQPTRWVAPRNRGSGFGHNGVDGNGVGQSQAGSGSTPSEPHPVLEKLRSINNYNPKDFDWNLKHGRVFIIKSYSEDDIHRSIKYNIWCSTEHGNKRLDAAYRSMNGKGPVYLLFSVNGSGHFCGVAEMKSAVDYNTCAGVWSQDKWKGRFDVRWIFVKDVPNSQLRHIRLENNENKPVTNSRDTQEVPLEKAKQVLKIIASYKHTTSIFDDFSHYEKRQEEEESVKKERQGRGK

[5] = molecular target: T4, Halo-V5-tagged YTHDF2 fragment F2 (aa 1-367) (human) (UniProt Q9Y5A9)
T4 sequence: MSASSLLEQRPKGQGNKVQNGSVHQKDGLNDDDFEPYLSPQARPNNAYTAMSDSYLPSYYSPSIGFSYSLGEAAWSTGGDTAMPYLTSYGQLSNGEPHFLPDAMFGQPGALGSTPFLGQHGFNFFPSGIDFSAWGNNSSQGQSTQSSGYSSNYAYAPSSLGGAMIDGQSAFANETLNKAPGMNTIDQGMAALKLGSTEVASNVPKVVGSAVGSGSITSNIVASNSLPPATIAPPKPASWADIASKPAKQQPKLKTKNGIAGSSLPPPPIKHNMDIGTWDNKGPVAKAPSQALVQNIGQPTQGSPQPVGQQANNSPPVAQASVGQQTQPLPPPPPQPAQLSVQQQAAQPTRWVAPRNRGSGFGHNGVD

[6] = molecular target: T5, Halo-V5-tagged YTHDF2 fragment F3 (aa 167-367) (human) (UniProt Q9Y5A9)
T5 sequence: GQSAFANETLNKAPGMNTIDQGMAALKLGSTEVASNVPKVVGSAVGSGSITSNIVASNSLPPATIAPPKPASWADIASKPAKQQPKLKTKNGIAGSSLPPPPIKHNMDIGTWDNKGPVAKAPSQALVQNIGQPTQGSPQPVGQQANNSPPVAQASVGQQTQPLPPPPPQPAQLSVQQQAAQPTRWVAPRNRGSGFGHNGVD

binding [1]: binds | binding [2]: no binding | binding [3]: binds | binding [4]: binds | binding [5]: binds | binding [6]: no binding
Substance: HA-tagged CNOT1 SH domain (from UniProt A5YKK6) (domain or fragment)
